Laboratory results: PubChem BioAssay AID652272 (Drosophila RNAi Screening Center, 2013)
The deposit covers about 21,000 reagents; shown is an unselected part of those that have a named target and a result. In the full data, 503 (2.4%) were called active. 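Raw plate light values, not normalised; calls rest on replicate z-scores that were not deposited; hits include reporter decreases as well as increases.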 Reagent sequences are not shown. The record does not give: the amount of reagent, the time to read-out.

Test: 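Genome-wide knock-down search for components of Hedgehog signalling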 (primary screen)
System: Drosophila clone 8 (Cl8) cells
Reagent: long dsRNA against Drosophila genes
Measured: 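Firefly light from a Hedgehog-responsive ptc promoter reporter and Renilla reference light, both read on a plate reader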
Scale: firefly Hh reporter signal: higher = more ptc reporter light; Renilla reference signal: higher = more Renilla control light
Call rule: 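Hit when the z-score averaged over two replicates is under -2 or over +3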
Calls: active = hit: reporter lowered or raised; inactive = not a hit

CG11815 [DRSC08209] — firefly Hh reporter signal, replicate 1 = 81702; firefly Hh reporter signal, replicate 2 = 32154; Renilla reference signal, replicate 1 = 2608; Renilla reference signal, replicate 2 = 2202; Call = inactive
CG13766 [DRSC02271] — firefly Hh reporter signal, replicate 1 = 87381; firefly Hh reporter signal, replicate 2 = 35121; Renilla reference signal, replicate 1 = 1641; Renilla reference signal, replicate 2 = 3949; Call = inactive
mthl2 [DRSC10287] — firefly Hh reporter signal, replicate 1 = 47047; firefly Hh reporter signal, replicate 2 = 52448; Renilla reference signal, replicate 1 = 4999; Renilla reference signal, replicate 2 = 3600; Call = inactive
Usf [DRSC18129] — firefly Hh reporter signal, replicate 1 = 91623; firefly Hh reporter signal, replicate 2 = 2.64e5; Renilla reference signal, replicate 1 = 3783; Renilla reference signal, replicate 2 = 10144; Call = inactive
CG11911 [DRSC00331] — firefly Hh reporter signal, replicate 1 = 89184; firefly Hh reporter signal, replicate 2 = 49908; Renilla reference signal, replicate 1 = 3508; Renilla reference signal, replicate 2 = 2116; Call = inactive
VhaM9.7-a [DRSC08289] — firefly Hh reporter signal, replicate 1 = 1.35e5; firefly Hh reporter signal, replicate 2 = 44683; Renilla reference signal, replicate 1 = 3608; Renilla reference signal, replicate 2 = 738; Call = inactive
IntS6 [DRSC18281] — firefly Hh reporter signal, replicate 1 = 82827; firefly Hh reporter signal, replicate 2 = 92564; Renilla reference signal, replicate 1 = 2052; Renilla reference signal, replicate 2 = 2566; Call = inactive
Rcd7 [DRSC10100] — firefly Hh reporter signal, replicate 1 = 89474; firefly Hh reporter signal, replicate 2 = 1.05e5; Renilla reference signal, replicate 1 = 3380; Renilla reference signal, replicate 2 = 3153; Call = inactive
CG16868 [DRSC06633] — firefly Hh reporter signal, replicate 1 = 87003; firefly Hh reporter signal, replicate 2 = 59140; Renilla reference signal, replicate 1 = 3616; Renilla reference signal, replicate 2 = 2519; Call = inactive
CG8541 [DRSC10989] — firefly Hh reporter signal, replicate 1 = 79271; firefly Hh reporter signal, replicate 2 = 64736; Renilla reference signal, replicate 1 = 8690; Renilla reference signal, replicate 2 = 4624; Call = inactive
CG8483 [DRSC16430] — firefly Hh reporter signal, replicate 1 = 1.14e5; firefly Hh reporter signal, replicate 2 = 85504; Renilla reference signal, replicate 1 = 4330; Renilla reference signal, replicate 2 = 3303; Call = inactive

Individual results from the entries so far.
For “Renilla reference signal, replicate 1”, CG8483 [DRSC16430] has 4330
Under “Renilla reference signal, replicate 1”, Rcd7 [DRSC10100] shows 3380

The results go on.
CG5767 [DRSC06953] — firefly Hh reporter signal, replicate 1 = 1.19e5; firefly Hh reporter signal, replicate 2 = 69461; Renilla reference signal, replicate 1 = 2989; Renilla reference signal, replicate 2 = 5111; Call = inactive
CG6567 [DRSC16066] — firefly Hh reporter signal, replicate 1 = 50477; firefly Hh reporter signal, replicate 2 = 79059; Renilla reference signal, replicate 1 = 1355; Renilla reference signal, replicate 2 = 2093; Call = inactive
CG13771 [DRSC02277] — firefly Hh reporter signal, replicate 1 = 92278; firefly Hh reporter signal, replicate 2 = 59729; Renilla reference signal, replicate 1 = 2210; Renilla reference signal, replicate 2 = 5193; Call = inactive
PolQ [DRSC17006] — firefly Hh reporter signal, replicate 1 = 1.18e5; firefly Hh reporter signal, replicate 2 = 1.20e5; Renilla reference signal, replicate 1 = 3984; Renilla reference signal, replicate 2 = 2695; Call = inactive
LManII [DRSC01986] — firefly Hh reporter signal, replicate 1 = 92186; firefly Hh reporter signal, replicate 2 = 66945; Renilla reference signal, replicate 1 = 3510; Renilla reference signal, replicate 2 = 2873; Call = inactive
CG15531 [DRSC15068] — firefly Hh reporter signal, replicate 1 = 74443; firefly Hh reporter signal, replicate 2 = 87280; Renilla reference signal, replicate 1 = 2020; Renilla reference signal, replicate 2 = 2069; Call = inactive
Polr1H [DRSC14594] — firefly Hh reporter signal, replicate 1 = 81768; firefly Hh reporter signal, replicate 2 = 60615; Renilla reference signal, replicate 1 = 4272; Renilla reference signal, replicate 2 = 2731; Call = inactive
C901 [DRSC19351] — firefly Hh reporter signal, replicate 1 = 76280; firefly Hh reporter signal, replicate 2 = 2.11e5; Renilla reference signal, replicate 1 = 2481; Renilla reference signal, replicate 2 = 8176; Call = inactive
CG14855 [DRSC14979] — firefly Hh reporter signal, replicate 1 = 1.27e5; firefly Hh reporter signal, replicate 2 = 81877; Renilla reference signal, replicate 1 = 4707; Renilla reference signal, replicate 2 = 2660; Call = inactive
CG5412 [DRSC15796] — firefly Hh reporter signal, replicate 1 = 82977; firefly Hh reporter signal, replicate 2 = 1.01e5; Renilla reference signal, replicate 1 = 3770; Renilla reference signal, replicate 2 = 3634; Call = inactive
